Residue numbers refer to the chain shown, from its start. The exact form of at least one protein or probe is not confirmed. Protein sequences can lack the tags named with them.
Tests used:
Experiment in all cases: EMSA
[1] = system: T1, MBP-RAD51AP1-F3-His6 (WT); conditions: EMSA buffer; KD(app) from one-site specific binding fit (GraphPad Prism 10), n = 3-4; recombinant protein; residues 188-335; protein details: N-terminal MBP, C-terminal His6; label: Cy5; single-stranded DNA
T1 sequence (looked up): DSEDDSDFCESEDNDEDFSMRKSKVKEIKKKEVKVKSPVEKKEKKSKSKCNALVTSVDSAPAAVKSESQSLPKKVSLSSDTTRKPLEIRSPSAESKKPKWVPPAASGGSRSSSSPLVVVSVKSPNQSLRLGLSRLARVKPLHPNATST

[2] = system: T2, MBP-RAD51AP1-F3-S2A-His6 S277A,S282A; conditions: tighter than WT and S2D; EMSA buffer; KD(app) from one-site specific binding fit (GraphPad Prism 10), n = 3-4; recombinant protein; residues 188-335; protein details: N-terminal MBP, C-terminal His6; label: Cy5; single-stranded DNA
T2 sequence (looked up): T1 sequence (looked up) with S90A, S95A

[3] = system: T3, MBP-RAD51AP1-F3-S2D-His6 S277D,S282D; conditions: not significantly different from WT; EMSA buffer; KD(app) from one-site specific binding fit (GraphPad Prism 10), n = 3-4; recombinant protein; residues …; protein details: N-terminal MBP, C-terminal His6; label: Cy5; single-stranded DNA
T3 sequence (looked up): T1 sequence (looked up) with S90D, S95D

Measured: binding result

TCGTAGACAGCTCTAGCACCGCTTAAACGCACGTAGGCGCTGTCCCCCGCGTTTTAACCGCCAAGGGGATTACTCCCTAG [Cy5-ssDNA 80-mer]
binds: all assays above
